From PMC4916389
These are yes or no findings as the source states them, for the method shown. Some results given as binding are weak or reduced against the parent protein; the word gives no strength. Where a sequence is shown, tags or fusion partners need not be part of it.

Target: TAP42, yeast two-hybrid fusion (Sordaria macrospora) (UniProt F7VNJ5)
Experiment: two-hybrid; Gal4 AD (pGADT7 derivatives, PJ69-4a) and BD (pGBKT7 derivatives, PJ69-4α) fusions in mated diploid S. cerevisiae; growth on SD medium lacking adenine, histidine, leucine and tryptophan/uracil; transactivating constructs pB-pp2Ac1, pB-pro11, pB-Smmob3 and pB-ENT1 omitted

- binding: binds
B1: TAP42, yeast two-hybrid fusion (protein, UniProt F7VNJ5 1-406)
chain: MSDQEPRSLKATFAAAEEKRLSLENSPPNPSDYADTLSAAIKLYQSCLSQISILSLFSSNEGLEDLNTNDLPYLLVNYHLAELIQKIPSPTPSPAERKRLLDQAREAYERYLHLLDSYEGLLNPTYKKRLERYTDSPTEFTVAGASASDPNARRNAKIANFKAEKELRQKLAYLRQRPEYAAADLELDDDESTTDQTGGGGNTGDEEVVRSVHLAHLDLCTHLTFQALESLNREMEVLNMAPREPASLPSAQLRGNNQAGAGNDMGAQDDLRRRQGGADPRDYSDRLDMPLSRLQGILGGSGPILSKEGRPLRPFTLTGTRQEIAKGVFRPSHNLPTMSIDEYLEEERRRGGIIEGGGEASWKAGEKNPDDEDDHEKLDAETMKARAWDEFVEANPKGAGNTLNRG
